Measured values: article PMC10883267 (2023)
Residue numbers refer to the chain shown, from its start. These are yes or no findings as the source states them, for the method shown. In cells and extracts the contact can be indirect. Some results given as binding are weak or reduced against the parent protein; the word gives no strength.

Chains of the proteins cited; added tags and fusions are not shown. Residues count along the entry.
UniProt Q9DFS6, residues 34-215: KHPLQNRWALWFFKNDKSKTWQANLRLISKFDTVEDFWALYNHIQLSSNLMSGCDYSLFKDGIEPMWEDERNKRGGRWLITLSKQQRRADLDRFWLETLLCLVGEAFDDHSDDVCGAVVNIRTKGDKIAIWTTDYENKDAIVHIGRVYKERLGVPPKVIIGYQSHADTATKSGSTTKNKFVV
UniProt Q13541, residues 50-83: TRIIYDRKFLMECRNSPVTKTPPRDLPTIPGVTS

Experiments:
Assay in all cases: pull-down; His- and MBP-tagged eIF4E from E. coli lysate held on HisPur Ni-NTA magnetic beads (1 h, 4 °C), then soluble fraction of E. coli lysate with MBP-tagged 4EBM (1 h, 4 °C); 50 mM Tris-HCl pH 7.5, 100 mM NaCl, 1 mM DTT, 20 mM imidazole, 0.01% Tween-20; eluted with 500 mM imidazole; SDS-PAGE, Coomassie, quantified with Fiji
[1] = molecular target: T1, human eIF4E1B (60-242) (human) (UniProt A6NMX2)
T1 sequence: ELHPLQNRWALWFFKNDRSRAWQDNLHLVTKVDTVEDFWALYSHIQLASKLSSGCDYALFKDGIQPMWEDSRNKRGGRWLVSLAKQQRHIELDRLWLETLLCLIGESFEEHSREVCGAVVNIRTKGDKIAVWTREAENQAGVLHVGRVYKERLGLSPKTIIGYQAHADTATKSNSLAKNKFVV

[2] = molecular target: T2, mouse eIF4E1B (63-244) (mouse) (UniProt Q3UTA9)
T2 sequence: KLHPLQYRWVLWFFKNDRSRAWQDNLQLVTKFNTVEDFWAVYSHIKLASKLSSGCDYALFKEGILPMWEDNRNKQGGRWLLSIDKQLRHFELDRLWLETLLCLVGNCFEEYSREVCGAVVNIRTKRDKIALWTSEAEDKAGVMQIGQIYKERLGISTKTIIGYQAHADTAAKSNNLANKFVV

[3] = molecular target: zebrafish eIF4Ea (34-215) (zebrafish) (UniProt Q9DFS6)
[4] = molecular target: T3, mouse eIF4E1B (63-244) Lys108 to Glu (mouse) (UniProt Q3UTA9)
T3 sequence: T2 sequence with K46E

[5] = molecular target: T4, mouse eIF4E1B (63-244) Lys112 to Asn (mouse) (UniProt Q3UTA9)
T4 sequence: T2 sequence with K50N

Measured: binding

eIF4E-binding motif of human eIF4EBP1 (50-83) (from UniProt Q13541 50-83) (domain or fragment)
binds: [1] | [2] | [3]

PHRYTKEELLDIKELPHSKQRPSCLSEKYDSDGVWDP (domain or fragment, UniProt Q9NRA8 27-63) [eIF4E-binding motif of human eIF4ENIF1 (27-63)]
binds: all assays above
